The supplement of paper PMC10849652
The other results are listed elsewhere or left out.

Protein sequences, listed by entry. Tags and fused reporters are not part of them. Lines headed by an entry give the natural chain unless they say otherwise; changes in a name come on top.
UniProt P10114: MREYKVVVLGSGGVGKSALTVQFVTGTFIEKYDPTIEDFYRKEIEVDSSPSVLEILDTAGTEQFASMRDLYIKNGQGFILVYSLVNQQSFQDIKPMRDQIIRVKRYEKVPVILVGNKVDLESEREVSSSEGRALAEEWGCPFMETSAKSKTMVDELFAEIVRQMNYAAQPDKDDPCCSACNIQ
UniProt P61225: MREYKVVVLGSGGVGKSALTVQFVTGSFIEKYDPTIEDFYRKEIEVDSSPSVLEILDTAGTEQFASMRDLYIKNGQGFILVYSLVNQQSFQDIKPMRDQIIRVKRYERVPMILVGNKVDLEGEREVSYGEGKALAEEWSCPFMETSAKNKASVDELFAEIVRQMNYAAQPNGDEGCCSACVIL
UniProt O60216: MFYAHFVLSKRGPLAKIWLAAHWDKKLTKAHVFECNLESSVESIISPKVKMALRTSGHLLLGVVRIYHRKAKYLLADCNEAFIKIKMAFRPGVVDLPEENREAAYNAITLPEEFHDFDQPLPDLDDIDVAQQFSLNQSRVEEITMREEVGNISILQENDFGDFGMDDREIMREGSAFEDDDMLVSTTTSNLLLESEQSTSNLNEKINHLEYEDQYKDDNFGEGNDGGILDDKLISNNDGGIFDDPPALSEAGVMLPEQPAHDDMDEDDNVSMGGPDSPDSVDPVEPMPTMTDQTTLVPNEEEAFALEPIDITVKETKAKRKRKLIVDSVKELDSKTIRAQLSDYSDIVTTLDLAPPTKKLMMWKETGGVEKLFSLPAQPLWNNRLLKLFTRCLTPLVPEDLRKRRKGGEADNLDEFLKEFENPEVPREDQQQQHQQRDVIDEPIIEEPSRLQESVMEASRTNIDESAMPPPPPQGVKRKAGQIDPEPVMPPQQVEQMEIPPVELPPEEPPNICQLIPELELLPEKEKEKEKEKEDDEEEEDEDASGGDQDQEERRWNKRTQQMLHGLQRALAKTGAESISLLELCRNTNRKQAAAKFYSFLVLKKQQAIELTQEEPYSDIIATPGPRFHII
UniProt P61006: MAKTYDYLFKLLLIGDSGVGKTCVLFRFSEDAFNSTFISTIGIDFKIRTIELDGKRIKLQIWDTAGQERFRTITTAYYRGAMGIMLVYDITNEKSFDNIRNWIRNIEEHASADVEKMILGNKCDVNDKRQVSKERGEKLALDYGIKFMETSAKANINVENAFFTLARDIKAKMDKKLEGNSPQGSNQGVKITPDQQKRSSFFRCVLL
UniProt P47224: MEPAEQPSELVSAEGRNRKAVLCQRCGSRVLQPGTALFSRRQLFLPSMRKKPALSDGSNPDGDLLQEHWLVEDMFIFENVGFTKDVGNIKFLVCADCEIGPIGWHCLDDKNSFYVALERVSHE
UniProt Q15907: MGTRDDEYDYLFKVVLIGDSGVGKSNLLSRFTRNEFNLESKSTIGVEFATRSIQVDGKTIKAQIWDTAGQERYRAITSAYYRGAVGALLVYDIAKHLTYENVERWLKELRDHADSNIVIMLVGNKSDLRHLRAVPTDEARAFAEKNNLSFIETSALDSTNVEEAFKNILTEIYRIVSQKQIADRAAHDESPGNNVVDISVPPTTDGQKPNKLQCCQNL
UniProt Q15286: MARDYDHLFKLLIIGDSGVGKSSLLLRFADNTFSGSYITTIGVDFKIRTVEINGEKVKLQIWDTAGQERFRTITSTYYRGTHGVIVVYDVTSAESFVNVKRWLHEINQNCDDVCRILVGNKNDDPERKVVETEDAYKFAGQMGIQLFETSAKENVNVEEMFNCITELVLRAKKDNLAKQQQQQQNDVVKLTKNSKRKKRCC
UniProt O43251: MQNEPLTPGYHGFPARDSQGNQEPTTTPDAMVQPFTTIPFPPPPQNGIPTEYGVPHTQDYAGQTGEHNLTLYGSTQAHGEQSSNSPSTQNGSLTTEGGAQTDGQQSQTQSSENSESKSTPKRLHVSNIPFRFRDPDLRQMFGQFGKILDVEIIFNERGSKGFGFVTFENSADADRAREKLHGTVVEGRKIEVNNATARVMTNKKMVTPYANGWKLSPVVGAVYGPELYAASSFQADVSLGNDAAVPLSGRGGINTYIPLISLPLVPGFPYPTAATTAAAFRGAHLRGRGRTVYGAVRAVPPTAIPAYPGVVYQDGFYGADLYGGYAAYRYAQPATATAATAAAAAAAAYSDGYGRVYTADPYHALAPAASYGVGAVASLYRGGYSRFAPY
UniProt Q9NP72: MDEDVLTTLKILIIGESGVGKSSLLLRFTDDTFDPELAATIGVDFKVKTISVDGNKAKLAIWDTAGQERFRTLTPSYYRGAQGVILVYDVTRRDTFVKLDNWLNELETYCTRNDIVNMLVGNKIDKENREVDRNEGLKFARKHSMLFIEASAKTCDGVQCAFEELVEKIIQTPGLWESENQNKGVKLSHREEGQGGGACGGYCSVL
UniProt P61019: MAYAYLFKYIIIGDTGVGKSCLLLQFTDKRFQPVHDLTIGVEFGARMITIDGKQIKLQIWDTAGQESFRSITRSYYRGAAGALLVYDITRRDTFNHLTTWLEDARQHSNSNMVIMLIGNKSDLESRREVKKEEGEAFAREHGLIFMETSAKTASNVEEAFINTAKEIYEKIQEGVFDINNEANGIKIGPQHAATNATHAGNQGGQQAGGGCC
UniProt Q9ULC3: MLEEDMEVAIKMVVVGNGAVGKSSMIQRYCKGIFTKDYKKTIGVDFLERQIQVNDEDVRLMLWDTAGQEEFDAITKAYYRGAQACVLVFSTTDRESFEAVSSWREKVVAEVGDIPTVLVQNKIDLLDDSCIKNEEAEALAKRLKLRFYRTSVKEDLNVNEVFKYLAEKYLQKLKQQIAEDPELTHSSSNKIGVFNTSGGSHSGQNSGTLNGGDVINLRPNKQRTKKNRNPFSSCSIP
UniProt Q96QF0: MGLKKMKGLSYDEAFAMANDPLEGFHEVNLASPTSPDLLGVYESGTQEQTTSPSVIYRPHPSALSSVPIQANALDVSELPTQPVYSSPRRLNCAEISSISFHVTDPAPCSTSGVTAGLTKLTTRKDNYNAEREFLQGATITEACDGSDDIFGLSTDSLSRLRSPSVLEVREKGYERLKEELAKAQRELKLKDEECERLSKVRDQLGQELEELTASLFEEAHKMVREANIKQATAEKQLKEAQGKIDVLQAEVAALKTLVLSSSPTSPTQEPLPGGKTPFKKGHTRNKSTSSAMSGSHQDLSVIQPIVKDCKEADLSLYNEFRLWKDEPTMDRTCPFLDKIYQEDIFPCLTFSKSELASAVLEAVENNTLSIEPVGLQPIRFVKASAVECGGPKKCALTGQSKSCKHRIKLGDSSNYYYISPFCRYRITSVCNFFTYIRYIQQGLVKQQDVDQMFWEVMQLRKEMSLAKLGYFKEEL
UniProt Q15042: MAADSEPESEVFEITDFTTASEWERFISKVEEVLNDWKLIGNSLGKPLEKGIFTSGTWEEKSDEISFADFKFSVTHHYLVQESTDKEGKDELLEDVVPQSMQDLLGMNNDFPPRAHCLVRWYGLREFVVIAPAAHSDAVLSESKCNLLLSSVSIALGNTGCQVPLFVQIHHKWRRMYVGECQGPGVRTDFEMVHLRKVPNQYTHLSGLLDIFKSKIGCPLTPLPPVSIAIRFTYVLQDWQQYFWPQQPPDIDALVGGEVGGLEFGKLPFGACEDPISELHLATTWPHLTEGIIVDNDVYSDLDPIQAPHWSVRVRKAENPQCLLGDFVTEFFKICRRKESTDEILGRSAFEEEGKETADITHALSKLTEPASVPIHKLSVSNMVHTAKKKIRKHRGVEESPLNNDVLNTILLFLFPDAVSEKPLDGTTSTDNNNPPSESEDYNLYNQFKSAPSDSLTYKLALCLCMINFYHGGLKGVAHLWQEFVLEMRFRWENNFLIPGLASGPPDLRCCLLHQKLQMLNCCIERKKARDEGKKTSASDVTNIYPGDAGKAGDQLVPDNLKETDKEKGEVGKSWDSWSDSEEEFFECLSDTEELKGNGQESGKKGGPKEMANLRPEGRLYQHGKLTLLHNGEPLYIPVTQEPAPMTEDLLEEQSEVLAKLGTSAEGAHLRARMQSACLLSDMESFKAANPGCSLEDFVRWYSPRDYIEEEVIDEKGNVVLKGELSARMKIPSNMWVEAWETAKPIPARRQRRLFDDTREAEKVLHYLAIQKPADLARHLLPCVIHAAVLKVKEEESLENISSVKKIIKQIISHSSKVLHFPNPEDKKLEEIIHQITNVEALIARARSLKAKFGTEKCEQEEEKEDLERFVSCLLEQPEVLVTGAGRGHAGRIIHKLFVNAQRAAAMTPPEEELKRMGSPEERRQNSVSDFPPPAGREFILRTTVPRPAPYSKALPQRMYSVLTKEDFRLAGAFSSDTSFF
UniProt Q3YEC7: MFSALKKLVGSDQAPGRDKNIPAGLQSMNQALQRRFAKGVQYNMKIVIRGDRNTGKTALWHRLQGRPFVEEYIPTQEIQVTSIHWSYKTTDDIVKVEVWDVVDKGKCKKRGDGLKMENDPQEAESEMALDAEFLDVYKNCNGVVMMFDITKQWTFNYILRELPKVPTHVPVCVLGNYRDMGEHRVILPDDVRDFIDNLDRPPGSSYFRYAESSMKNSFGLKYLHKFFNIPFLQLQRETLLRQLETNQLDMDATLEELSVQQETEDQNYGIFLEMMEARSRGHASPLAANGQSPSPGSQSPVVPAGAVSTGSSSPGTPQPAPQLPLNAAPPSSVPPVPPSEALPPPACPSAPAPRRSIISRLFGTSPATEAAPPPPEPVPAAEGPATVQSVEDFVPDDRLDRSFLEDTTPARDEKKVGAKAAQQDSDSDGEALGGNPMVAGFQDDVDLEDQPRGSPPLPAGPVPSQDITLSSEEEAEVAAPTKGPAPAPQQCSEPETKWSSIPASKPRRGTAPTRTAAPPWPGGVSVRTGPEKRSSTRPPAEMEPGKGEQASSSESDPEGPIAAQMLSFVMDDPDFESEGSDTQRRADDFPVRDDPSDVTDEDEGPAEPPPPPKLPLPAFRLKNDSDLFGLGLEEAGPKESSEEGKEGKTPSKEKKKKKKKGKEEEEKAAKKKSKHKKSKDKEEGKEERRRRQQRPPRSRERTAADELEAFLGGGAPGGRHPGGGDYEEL
UniProt Q9Y3P9: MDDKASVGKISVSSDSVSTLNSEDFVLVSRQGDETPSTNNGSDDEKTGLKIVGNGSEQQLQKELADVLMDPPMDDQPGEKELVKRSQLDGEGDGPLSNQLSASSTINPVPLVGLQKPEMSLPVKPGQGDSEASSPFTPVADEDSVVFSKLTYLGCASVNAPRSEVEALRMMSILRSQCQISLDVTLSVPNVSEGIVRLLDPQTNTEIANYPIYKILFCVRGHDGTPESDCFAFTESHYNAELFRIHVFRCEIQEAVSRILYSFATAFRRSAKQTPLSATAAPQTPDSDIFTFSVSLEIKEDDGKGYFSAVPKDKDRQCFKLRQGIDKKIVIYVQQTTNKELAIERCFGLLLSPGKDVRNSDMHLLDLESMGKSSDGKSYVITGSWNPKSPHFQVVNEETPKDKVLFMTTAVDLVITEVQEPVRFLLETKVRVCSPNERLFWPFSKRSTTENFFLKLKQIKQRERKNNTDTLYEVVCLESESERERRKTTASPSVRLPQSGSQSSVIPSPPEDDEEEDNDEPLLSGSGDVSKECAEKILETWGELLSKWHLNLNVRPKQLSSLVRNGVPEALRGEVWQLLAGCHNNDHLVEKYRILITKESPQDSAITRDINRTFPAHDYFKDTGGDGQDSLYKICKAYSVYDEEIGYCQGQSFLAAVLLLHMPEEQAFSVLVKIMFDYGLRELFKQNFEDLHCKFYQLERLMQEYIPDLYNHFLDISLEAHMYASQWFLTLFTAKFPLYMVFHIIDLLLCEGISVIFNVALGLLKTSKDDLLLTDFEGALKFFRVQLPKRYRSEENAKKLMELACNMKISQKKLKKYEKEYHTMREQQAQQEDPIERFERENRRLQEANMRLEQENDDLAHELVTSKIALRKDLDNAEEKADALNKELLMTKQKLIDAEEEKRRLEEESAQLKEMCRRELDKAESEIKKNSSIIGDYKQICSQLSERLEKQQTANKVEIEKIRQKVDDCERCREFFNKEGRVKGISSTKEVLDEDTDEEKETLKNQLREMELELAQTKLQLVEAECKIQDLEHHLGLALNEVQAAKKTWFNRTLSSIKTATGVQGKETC
UniProt Q9UJ41, whole entry, looked up: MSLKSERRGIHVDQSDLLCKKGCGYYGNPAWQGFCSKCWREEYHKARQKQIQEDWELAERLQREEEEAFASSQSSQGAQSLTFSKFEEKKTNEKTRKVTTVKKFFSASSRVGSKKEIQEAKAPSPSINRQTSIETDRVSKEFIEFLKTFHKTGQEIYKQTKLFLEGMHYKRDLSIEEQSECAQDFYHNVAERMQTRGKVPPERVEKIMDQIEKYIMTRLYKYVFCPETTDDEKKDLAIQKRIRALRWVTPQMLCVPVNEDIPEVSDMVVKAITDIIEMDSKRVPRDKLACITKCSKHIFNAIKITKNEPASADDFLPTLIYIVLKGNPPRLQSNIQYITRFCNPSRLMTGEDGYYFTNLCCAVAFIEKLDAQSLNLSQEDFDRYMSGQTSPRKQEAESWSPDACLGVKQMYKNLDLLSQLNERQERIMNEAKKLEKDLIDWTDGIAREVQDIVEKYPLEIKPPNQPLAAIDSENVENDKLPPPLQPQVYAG

Legend:
Experiment in all cases: log2 fold change, soluble protein after heating vs DMSO (PISA); higher = thermal stabilisation; K562 cells, 10 uM, 30 min; active = over 0.2 and 3.5 SD of the protein, either way, in both replicates (recomputed)
[1] = compound: CS(=O)(=O)c1ccc(-c2cnc(N)c(C(=O)Nc3ccccc3)n2)cc1
How it was run: (§1)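 K562 cells at 2×10^6 cells/mL were given 10 μM compound for 30 min. Aliquots then went through 3 min of heating across 48°C-58°C, were pooled, and were extracted in PBS with 0.5% NP-40 at 4°C, and the supernatant after 21,000xg for 90 min was quantified by TMTpro 16plex LC-MS/MS with channel sums equalised. Thermal stability relative to control samples, from duplicates, is given as log2 fold change.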

[2] = compound: C[C@@H](Oc1cc(-c2cnn(C3CCNCC3)c2)cnc1N)c1c(Cl)ccc(F)c1Cl [crizotinib]
How it was run: as §1

[3] = compound: C[C@@H]1COCCN1C2=NC(=NC(=C2)C3(CC3)S(=O)(=O)C)C4=C5C=CNC5=CC=C4
How it was run: as §1

[4] = compound: C[C@H](C1=CC=C(C=C1)C(=O)NC2=C3C=CNC3=NC=C2)N
How it was run: as §1

[5] = compound: C[C@H](Nc1ncnc2nc[nH]c12)c1cc2cccc(Cl)c2c(=O)n1-c1ccccc1 [duvelisib]
How it was run: as §1

[6] = compound: Cc1cc(Nc2cc(CN3CCOCC3)c3nc(C)c(Cc4ccc(Cl)cc4F)n3n2)n[nH]1 [gandotinib]
How it was run: as §1

[7] = compound: Cc1cc(Nc2cc(N3CCN(C)CC3)nc(Sc3ccc(NC(=O)C4CC4)cc3)n2)n[nH]1 [tozasertib]
How it was run: as §1

[8] = compound: Cc1cc(SCc2sc(-c3ccc(C(F)(F)F)cc3)nc2C)ccc1OCC(=O)O
How it was run: as §1

[9] = compound: Cc1ccc(-n2nc(C(C)(C)C)cc2NC(=O)Nc2ccc(OCCN3CCOCC3)c3ccccc23)cc1 [doramapimod]
How it was run: as §1

[10] = compound: Cc1ccc(C(=O)N(CCCN)[C@@H](c2nc3cc(Cl)ccc3c(=O)n2Cc2ccccc2)C(C)C)cc1 [ispinesib]
How it was run: as §1

Measured: log2 fold change

RAP2A (UniProt P10114)
inactive: [1] 0.054 | [2] 0.139 | [3] 0.08 | [4] -0.18 | [5] 0.095 | [6] 0.076 | [7] -0.004 | [8] -0.047 | [9] -0.039 | [10] 0.043

RAP2B (UniProt P61225)
inactive: [1] -0.027 | [2] 0.078 | [3] 0.047 | [4] -0.12 | [5] 0.052 | [6] -0.031 | [7] -0.066 | [8] -0.077 | [9] -0.021 | [10] 0.067

RAD21 (UniProt O60216)
inactive: [1] 0.019 | [2] 0.018 | [3] 0.045 | [4] -0.059 | [5] 0.028 | [6] -0.039 | [7] 0.039 | [8] 0.004 | [9] 0.003 | [10] 0.04

RAB8A (UniProt P61006)
inactive: [1] 0.018 | [2] 0.129 | [3] -0.012 | [4] 0.032 | [5] 0.03 | [6] 0.013 | [7] -0.013 | [8] -0.018 | [9] -0.051 | [10] -0.158

RABIF (UniProt P47224)
inactive: [1] 0.086 | [2] 0.002 | [3] -0.021 | [4] -0.08 | [5] -0.019 | [6] 0.111 | [7] 0.061 | [8] -0.007 | [9] -0.129 | [10] 0.13

RAB11B (UniProt Q15907)
inactive: [1] 0.038 | [2] 0.062 | [3] -0.013 | [4] -0.023 | [5] 0.025 | [6] -0.005 | [7] -0.037 | [8] -0.073 | [9] -0.009 | [10] -0.018

RBM10 isoform 5 (UniProt P98175)
inactive: [1] -0.023 | [2] 0.063 | [3] -0.051 | [4] 0.049 | [5] -0.066 | [6] 0.007 | [7] 0.079 | [8] 0.031 | [9] -0.009 | [10] 0.013

RAD9A (UniProt Q99638)
inactive: [1] 0.014 | [2] 0.07 | [3] 0.042 | [4] -0.119 | [5] -0.013 | [6] -0.043 | [7] 0.055 | [8] 0.012 | [9] -0.025 | [10] 0.025

RBBP7 isoform 2 (UniProt Q16576)
inactive: [1] 0.032 | [2] 0.033 | [3] 0.008 | [4] -0.013 | [5] 0.016 | [6] 0.008 | [7] 0.03 | [8] -0.018 | [9] -0.019 | [10] 0.09

RAB35 (UniProt Q15286)
inactive: [1] 0.012 | [2] 0.015 | [3] 0.011 | [4] -0.069 | [5] 0.009 | [6] -0.027 | [7] -0.043 | [8] -0.025 | [9] -0.009 | [10] -0.058

RAP1B (UniProt P61224)
inactive: [1] 0.006 | [2] -0.02 | [3] 0 | [4] -0.105 | [5] -0.005 | [6] -0.011 | [7] -0.024 | [8] -0.042 | [9] -0.005 | [10] 0.007

RBFOX2 isoform 8 (UniProt O43251)
inactive: [1] -0.202 | [2] 0.158 | [3] -0.067 | [4] 0.076 | [5] 0 | [6] -0.116 | [7] -0.019 | [8] -0.049 | [9] 0.032 | [10] -0.123

RAB43 (UniProt Q86YS6)
inactive: [1] 0.077 | [2] 0.011 | [3] 0.025 | [4] -0.004 | [5] 0.12 | [6] 0.022 | [7] 0.035 | [8] 0.002 | [9] 0.021 | [10] 0.036

RAB18 (UniProt Q9NP72)
inactive: [1] -0.027 | [2] 0.029 | [3] -0.059 | [4] -0.024 | [5] -0.01 | [6] -0.079 | [7] -0.041 | [8] -0.018 | [9] -0.028 | [10] 0.048

RAB2A (UniProt P61019)
inactive: [1] 0.006 | [2] 0.051 | [3] 0.07 | [4] -0.026 | [5] 0.043 | [6] -0.031 | [7] -0.046 | [8] -0.021 | [9] 0.001 | [10] 0.009

RAB23 (UniProt Q9ULC3)
inactive: [1] 0.025 | [2] 0.135 | [3] 0.088 | [4] -0.033 | [5] 0.037 | [6] -0.031 | [7] -0.07 | [8] -0.031 | [9] -0.029 | [10] 0.134

Quoted at random: 2 entries already listed.
RAB35 (UniProt Q15286)
inactive: [1] 0.012 | [2] 0.015 | [3] 0.011 | [4] -0.069 | [5] 0.009 | [6] -0.027 | [7] -0.043 | [8] -0.025 | [9] -0.009 | [10] -0.058

RAD21 (UniProt O60216)
inactive: [1] 0.019 | [2] 0.018 | [3] 0.045 | [4] -0.059 | [5] 0.028 | [6] -0.039 | [7] 0.039 | [8] 0.004 | [9] 0.003 | [10] 0.04

(further entries)

RAP1A (UniProt P62834)
inactive: [1] 0.021 | [2] 0.062 | [3] 0.011 | [4] -0.088 | [5] 0.044 | [6] 0.019 | [7] 0.06 | [8] -0.011 | [9] 0.009 | [10] 0.185

RAB1B (UniProt Q9H0U4)
inactive: [1] 0.064 | [2] 0.008 | [3] 0.028 | [4] -0.022 | [5] 0.022 | [6] 0.022 | [7] -0.036 | [8] -0.061 | [9] 0.024 | [10] 0.069

RAB22A (UniProt Q9UL26)
inactive: [1] 0.061 | [2] 0.084 | [3] 0.042 | [4] -0.087 | [5] 0.08 | [6] 0.019 | [7] -0.016 | [8] -0.009 | [9] -0.028 | [10] 0.017

RAB7A (UniProt P51149)
inactive: [1] 0.027 | [2] 0.042 | [3] -0.019 | [4] -0.081 | [5] -0.001 | [6] -0.005 | [7] 0.001 | [8] -0.024 | [9] -0.055 | [10] 0.027

RAB3IP (UniProt Q96QF0)
inactive: [1] 0.016 | [2] 0.211 | [3] 0.139 | [4] -0.233 | [5] 0.09 | [6] -0.095 | [7] 0.047 | [8] -0.008 | [9] -0.245 | [10] 0.007

RAB3GAP1 (UniProt Q15042)
inactive: [1] 0.019 | [2] -0.071 | [3] -0.013 | [4] 0.216 | [5] 0.119 | [6] -0.021 | [7] 0.049 | [8] 0.084 | [9] 0.105 | [10] -0.206

RABL6 (UniProt Q3YEC7)
inactive: [1] 0.007 | [2] 0.02 | [3] -0.031 | [4] -0.049 | [5] 0.038 | [6] 0.056 | [7] -0.012 | [8] -0.023 | [9] -0.023 | [10] -0.019

RAC2 (UniProt P15153)
inactive: [1] 0.006 | [2] 0.023 | [3] -0.056 | [4] -0.039 | [5] 0.079 | [6] -0.019 | [7] -0.051 | [8] -0.036 | [9] -0.028 | [10] 0.056

RABGAP1 (UniProt Q9Y3P9)
inactive: [1] -0.02 | [2] -0.036 | [3] 0.069 | [4] 0.016 | [5] -0.008 | [6] -0.025 | [7] 0.023 | [8] 0.011 | [9] 0.051 | [10] -0.086

RAB32 (UniProt Q13637)
inactive: [1] -0.02 | [2] 0.11 | [3] 0.017 | [4] -0.058 | [5] -0.039 | [6] -0.017 | [7] -0.041 | [8] 0.028 | [9] 0.019 | [10] 0.047

RAD1 (UniProt O60671)
inactive: [1] -0.004 | [2] 0.046 | [3] -0.066 | [4] -0.059 | [5] 0 | [6] -0.001 | [7] -0.028 | [8] -0.039 | [9] -0.006 | [10] 0.023

RABGEF1 isoform 3 (UniProt Q9UJ41)
inactive: [1] 0.068 | [2] 0.024 | [3] 0.029 | [4] -0.004 | [5] 0.006 | [6] 0.01 | [7] 0.008 | [8] 0.07 | [9] -0.044 | [10] 0.008

RAB3C (UniProt Q96E17)
inactive: [1] -0.007 | [2] 0.067 | [3] 0.059 | [4] -0.105 | [5] 0.052 | [6] -0.004 | [7] -0.059 | [8] -0.068 | [9] -0.108 | [10] 0.046
